Source: PubChem BioAssay AID485313 (National Center for Advancing Translational Sciences (NCATS), 2010)
In all, about 320,000 compounds went through this assay and about 7,600 (2.4%) were called active. These results got no clear call from the source, so the numbers are uncertain. The call rests on the fitted dose curve; in most records, active means well fitted activation curve with a large enough effect; inconclusive means small, poorly fitted or top-dose-only effect; inactive means no such curve, though single readings can be large or run the other way.

assay: qHTS Assay for NPC1 Promoter Activators; conditions: Huh7 NPC1 promoter luciferase reporter, 24 h; further: nearly all actives have a fitted effect of over 60% in size
Potency means the concentration at half of the fitted maximal effect.

SMILES	Potency
CC(C)c1ccc(NC2CCN(C(=O)OC(C)(C)C)CC2)cc1	inconclusive: 3.55 µM
COc1cc(OC)cc(C(=O)NCC2(N3CCCCC3)CCCCC2)c1	inconclusive: 2.82 µM
